Results are given in words; binding and its absence hold for the method and conditions named. For some of these results: Binding calls can cover weak binding; strength is not graded here. Sequences can lack the tags named with a protein.
Experiments:
[1] = biological target: T1, biotinylated ParT (WT), ParB-like protein of plasmid SCP2 (Streptomyces coelicolor) (UniProt Q8VWE5); test: condition: only 1 µM ParA with 0.05 mg/mL nonspecific DNA, without ATP; BLI; biotinylated ParT immobilised on streptavidin probes; 1 µM ParA-His6 with 0.05 mg/mL nonspecific (salmon sperm) DNA, no ATP; 100 mM Tris-HCl pH 8, 150 mM NaCl, 1 mM MgCl2, 0.005% Tween-20; both purified
T1 sequence (chain, biotin (site and way of biotinylation not stated)): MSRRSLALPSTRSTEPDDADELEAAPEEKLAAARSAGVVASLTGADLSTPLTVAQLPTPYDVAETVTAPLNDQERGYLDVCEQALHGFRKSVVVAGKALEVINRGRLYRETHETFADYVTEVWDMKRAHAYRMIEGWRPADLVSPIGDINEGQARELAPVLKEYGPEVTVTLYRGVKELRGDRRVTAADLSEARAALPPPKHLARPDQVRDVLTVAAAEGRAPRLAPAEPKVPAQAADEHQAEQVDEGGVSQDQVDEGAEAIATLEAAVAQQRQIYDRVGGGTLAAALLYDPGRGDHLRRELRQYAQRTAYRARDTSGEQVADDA

[2] = biological target: T1, biotinylated ParT (WT), ParB-like protein of plasmid SCP2 (Streptomyces coelicolor); test: condition: only 1 µM ParA with 1 mM ATP, without DNA; BLI; biotinylated ParT immobilised on streptavidin probes; 1 µM ParA-His6 with 1 mM ATP, no DNA; 100 mM Tris-HCl pH 8, 150 mM NaCl, 1 mM MgCl2, 0.005% Tween-20; both purified
[3] = biological target: T1, biotinylated ParT (WT), ParB-like protein of plasmid SCP2 (Streptomyces coelicolor); test: BLI; biotinylated ParT (WT or ΔN3) immobilised on streptavidin probes; 1 µM ParA-His6 preincubated on ice for 20 min with 1 mM ATP and 0.05 mg/mL salmon sperm DNA; 100 mM Tris-HCl pH 8, 150 mM NaCl, 1 mM MgCl2, 0.005% Tween-20; both purified
[4] = biological target: T1, biotinylated ParT (WT), ParB-like protein of plasmid SCP2 (Streptomyces coelicolor); test: condition: only 1 µM ParA alone, without ATP and without DNA; BLI; biotinylated ParT immobilised on streptavidin probes; 1 µM ParA-His6 alone (apo-ParA, no ATP, no DNA); 100 mM Tris-HCl pH 8, 150 mM NaCl, 1 mM MgCl2, 0.005% Tween-20; both purified

In the case of “ParA-His6, ParA of plasmid SCP2 (Streptomyces coelicolor) (enzyme)”, the binding [1] is reported as “no binding”, the binding [2] is reported as “no binding” and the binding [3] is reported as “binds”. The binding [4] was “no binding”.

Reference: paper PMC12260392, “Expanding the diversity of bacterial DNA partitioning: A CTP-independent ParABS system for plasmid partitioning in Streptomyces” (Proceedings of the National Academy of Sciences of the …, 2025)
